The values that follow come from publication doi:10.1101/432989 (bioRxiv, 2018).

For this experiment, the target named is MazF-mt9 in pBT (bacterial two-hybrid bait) (Mycobacterium tuberculosis). In words: two-hybrid.

Results are given in words; binding and its absence hold for the method and conditions named. Binding can be weak; no strength is given.

B1: MazE-mt9 in pTRG (bacterial two-hybrid prey) (protein, UniProt P9WJ85 1-77)
chain: MSTSTTIRVSTQTRDRLAAQARERGISMSALLTELAAQAERQAIFRAEREASHAETTTQAVRDEDREWEGTVGDGLG
On to B1, for which the binding entry is given as “binds”.

B2: MazE-mt1 in pTRG (bacterial two-hybrid prey) (protein, UniProt P0CL61 1-76)
chain: MKLSVSLSDDDVAILDAYVKRAGLPSRSAGLQHAIRVLRYPTLEDDYANAWQEWSAAGDTDAWEQTVGDGVGDAPR
Consider B2, for which the binding result is reported as “binds”.
